Publication PMC4844956
Results are given in words; binding and its absence hold for the method and conditions named. For some assays here: Binding can be weak; no strength is given. Sequences can lack the tags named with a protein.

T1: human RG9MTD1 fused to the GAL4 binding domain (human) (UniProt Q7L0Y3)
T1 sequence: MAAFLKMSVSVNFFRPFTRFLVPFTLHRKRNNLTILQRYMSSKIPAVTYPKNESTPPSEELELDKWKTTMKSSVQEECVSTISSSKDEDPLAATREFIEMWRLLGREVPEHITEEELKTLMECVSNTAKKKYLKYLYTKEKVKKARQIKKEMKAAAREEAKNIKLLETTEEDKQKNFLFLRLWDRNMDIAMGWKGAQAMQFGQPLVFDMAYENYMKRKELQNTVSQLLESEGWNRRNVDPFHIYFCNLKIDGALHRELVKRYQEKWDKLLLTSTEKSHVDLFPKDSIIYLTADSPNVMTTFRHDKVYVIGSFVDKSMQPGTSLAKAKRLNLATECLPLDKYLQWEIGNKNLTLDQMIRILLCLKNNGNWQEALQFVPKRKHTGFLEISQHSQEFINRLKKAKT

T2: human CMTR2 fused to the GAL4 binding domain (human) (UniProt Q8IYT2)
T2 sequence: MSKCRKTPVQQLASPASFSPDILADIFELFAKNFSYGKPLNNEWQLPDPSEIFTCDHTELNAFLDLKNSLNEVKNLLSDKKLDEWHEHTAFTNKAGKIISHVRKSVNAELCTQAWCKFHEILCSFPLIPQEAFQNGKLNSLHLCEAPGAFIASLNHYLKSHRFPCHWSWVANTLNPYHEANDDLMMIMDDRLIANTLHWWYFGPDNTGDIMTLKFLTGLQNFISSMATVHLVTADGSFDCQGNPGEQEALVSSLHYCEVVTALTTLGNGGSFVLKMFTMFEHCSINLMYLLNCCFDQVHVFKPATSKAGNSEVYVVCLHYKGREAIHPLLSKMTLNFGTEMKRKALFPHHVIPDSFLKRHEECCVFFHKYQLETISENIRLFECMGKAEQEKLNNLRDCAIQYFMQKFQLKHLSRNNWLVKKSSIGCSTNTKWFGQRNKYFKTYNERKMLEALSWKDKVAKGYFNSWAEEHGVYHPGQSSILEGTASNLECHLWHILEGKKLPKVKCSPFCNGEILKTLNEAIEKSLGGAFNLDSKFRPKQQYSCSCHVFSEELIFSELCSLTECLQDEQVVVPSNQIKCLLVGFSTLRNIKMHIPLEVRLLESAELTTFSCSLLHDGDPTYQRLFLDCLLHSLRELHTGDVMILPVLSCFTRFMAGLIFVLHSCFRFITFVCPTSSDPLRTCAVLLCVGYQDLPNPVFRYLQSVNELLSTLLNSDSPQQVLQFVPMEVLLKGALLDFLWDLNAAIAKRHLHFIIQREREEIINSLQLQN

T3: human CMTR1 fused to the GAL4 binding domain (human) (UniProt Q8N1G2)
T3 sequence: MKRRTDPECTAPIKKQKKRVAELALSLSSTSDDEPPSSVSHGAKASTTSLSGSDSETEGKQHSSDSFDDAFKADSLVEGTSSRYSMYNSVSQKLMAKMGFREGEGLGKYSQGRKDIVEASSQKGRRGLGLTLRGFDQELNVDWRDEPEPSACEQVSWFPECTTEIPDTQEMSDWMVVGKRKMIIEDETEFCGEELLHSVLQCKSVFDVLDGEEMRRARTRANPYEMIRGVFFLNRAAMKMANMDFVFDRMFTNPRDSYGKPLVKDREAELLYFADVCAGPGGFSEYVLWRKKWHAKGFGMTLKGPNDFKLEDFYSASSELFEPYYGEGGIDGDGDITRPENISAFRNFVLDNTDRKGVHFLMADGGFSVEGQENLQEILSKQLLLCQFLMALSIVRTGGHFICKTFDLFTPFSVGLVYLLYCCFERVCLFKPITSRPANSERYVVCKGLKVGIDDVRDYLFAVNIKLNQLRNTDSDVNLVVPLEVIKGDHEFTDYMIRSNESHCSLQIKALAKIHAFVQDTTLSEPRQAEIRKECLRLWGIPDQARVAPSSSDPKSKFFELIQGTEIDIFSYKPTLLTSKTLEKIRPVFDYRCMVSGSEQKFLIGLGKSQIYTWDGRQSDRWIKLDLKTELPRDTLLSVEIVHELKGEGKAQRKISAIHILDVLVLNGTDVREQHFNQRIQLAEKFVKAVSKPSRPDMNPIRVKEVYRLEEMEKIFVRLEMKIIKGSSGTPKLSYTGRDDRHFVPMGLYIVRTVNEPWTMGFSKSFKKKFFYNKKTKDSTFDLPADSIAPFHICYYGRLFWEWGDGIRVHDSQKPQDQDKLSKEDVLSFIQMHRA


Key:
[1] = target: T1, human RG9MTD1 fused to the GAL4 binding domain (human); assay: two-hybrid; GAL4 system in Y2H Gold; cotransformants replica plated on LTHA−, LTH−Ar+, LT−+X-α-gal and LTH− with 0-20 mM 3-AT, 30 °C, growth scored + to +++
[2] = target: T2, human CMTR2 fused to the GAL4 binding domain (human); assay: as above
[3] = target: T3, human CMTR1 fused to the GAL4 binding domain (human); assay: as above
[4] = target: D6 ORF3 deletion (33-123aa) fused to the GAL4 binding domain (Hepatitis E virus genotype 1, SAR 55 strain); assay: as above
[5] = target: D3 ORF3 deletion fused to the GAL4 binding domain (Hepatitis E virus genotype 1, SAR 55 strain); assay: as above
[6] = target: D5 ORF3 deletion fused to the GAL4 binding domain (Hepatitis E virus genotype 1, SAR 55 strain); assay: as above
[7] = target: D2 ORF3 deletion fused to the GAL4 binding domain (Hepatitis E virus genotype 1, SAR 55 strain); assay: as above
[8] = target: D4 ORF3 deletion fused to the GAL4 binding domain (Hepatitis E virus genotype 1, SAR 55 strain); assay: as above
[9] = target: D7 ORF3 deletion (63-123aa) fused to the GAL4 binding domain (Hepatitis E virus genotype 1, SAR 55 strain); assay: as above
[10] = target: D1 ORF3 deletion fused to the GAL4 binding domain (Hepatitis E virus genotype 1, SAR 55 strain); assay: as above
[11] = target: D6 ORF3 deletion (33-123aa) fused to the GAL4 binding domain (Hepatitis E virus genotype 1, SAR 55 strain); assay: two-hybrid; GAL4 system in Y2H Gold; quantitative liquid α-galactosidase assay (MEL1 reporter) of cotransformants, triplicates
[12] = target: D3 ORF3 deletion fused to the GAL4 binding domain (Hepatitis E virus genotype 1, SAR 55 strain); assay: as above
[13] = target: D5 ORF3 deletion fused to the GAL4 binding domain (Hepatitis E virus genotype 1, SAR 55 strain); assay: as above
[14] = target: D2 ORF3 deletion fused to the GAL4 binding domain (Hepatitis E virus genotype 1, SAR 55 strain); assay: as above
[15] = target: D4 ORF3 deletion fused to the GAL4 binding domain (Hepatitis E virus genotype 1, SAR 55 strain); assay: as above
[16] = target: D7 ORF3 deletion (63-123aa) fused to the GAL4 binding domain (Hepatitis E virus genotype 1, SAR 55 strain); assay: as above
[17] = target: D1 ORF3 deletion fused to the GAL4 binding domain (Hepatitis E virus genotype 1, SAR 55 strain); assay: as above

Molecule | binding [1] | binding [2] | binding [3] | binding [4] | binding [5] | binding [6] | binding [7] | binding [8] | binding [9] | binding [10] | binding [11] | binding [12] | binding [13] | binding [14] | binding [15] | binding [16] | binding [17]
human PARP14 fused to the GAL4 activation domain | no binding | no binding | no binding | – | – | – | – | – | – | – | – | – | – | – | – | – | –
human MacroH2A1.1 fused to the GAL4 activation domain | no binding | no binding | no binding | – | – | – | – | – | – | – | – | – | – | – | – | – | –
HEV X-domain (macro domain) fused to the GAL4 activation domain (domain or fragment, UniProt P33424 775-921) ARHRRLLFTYPDGSKVFAGSLFESTCTWLVNASNVDHRPGGGLCHAFYQRYPASFDAASFVMRDGAAAYTLTPRPIIHAVAPDYRLEHNPKRLEAAYRETCSRLGTAAYPLLGTGIYQVPIGPSFDAWERNHRPGDELYLPELAARW | – | – | – | binds | binds weakly | no binding | binds weakly | binds weakly | binds | binds weakly | binds | binds weakly | no binding | binds weakly | binds weakly | binds | binds weakly
